Laboratory results reported in patent US20200368235A1, “IBRUTINIB COMBINATION THERAPY” (Pharmacyclics LLC, priority 2013, published 2020).
At least one structure is not confirmed: it was looked up by name or label, or the drawing left a doubt.

Tested on: 17 Diffuse Large B Cell Lymphoma (DLBCL) cell lines
Experiment: High throughput screen of ibrutinib combinations, growth inhibition by ATP-lite at 72h
Format: cell-based
Settings: synergy score heat map across DLBCL cell lines
Experimental: A high throughput screen of 17 Diffuse Large B Cell Lymphoma (DLBCL) cell lines was conducted for their response to Ibrutinib in combination with 99 anti-cancer agents selected from among standard-of-care and emerging therapeutics and targeted agents. The goal of the project was to identify and quantify specific synergies with Ibrutinib to identify pathways that contribute to clinical response. Examples of therapeutics tested included first-line DLBCL therapeutics: RCHOP (Rituximab, Cyclophosphamide, Doxorubicin, Vincristine, Prednisone) or EPOCH (+Etoposide) and Second-line therapeutics: Dexamethasone, Prednisone, Etoposide, Vincristine, Gemcitabine, Carboplatin, Ifosfamide, Bendamustine, Cyclophosphamide, Rituximab, Lenalidomide, and Anthracycline.
The 17 DLBCL cell lines tested were DB, DOHH-2, HBL-1, HT, NU-DHL-1, OCI-Lyl, OCI-Ly10, OCI-Ly18, OCI-Ly19, OCI-Ly3, OCI-Ly7, Pfeiffer, SU-DHL-5, SU-DHL-6, SU-DHL-8, TMD8 and Toledo. Eight of the cell lines were screened in human MSC-conditioned medium (hMSC-CM) and nine of the cell lines were screened with hMSC-CM+1 ug/ml each of anti-IgM and anti-IgG. […]
The cells were seeded 24h before dosing. […] Growth inhibition of the cell culture was measured as follows: […]

C[C@@H]1C[C@H]2[C@@H]3CCC4=CC(=O)C=C[C@]4(C)[C@@]3(F)[C@@H](O)C[C@]2(C)[C@@]1(O)C(=O)CO [Dexamethasone]
synergy in combination with JNJ-02 (ibrutinib): strong synergy and good breadth of activity
